Reference: patent US5660842A, “Inhibition of helicobacter” (Bristol-Myers Squibb Company, priority 1995, dated 1997)
At least one compound was matched to its structure with a doubt left.

Tested on: Helicobacter pylori
Assay: Viability of H. pylori after 1 hour with FFA or MG in Brucella broth (plate count, Example 1, Table 1)
Format: cell-based
Conditions: 37° C.

CCCCCCCC(=O)OCC(O)CO (stereo not drawn) [Monocaprylin, monocaprylin]
Reduction in number of viable H. pylori cells (CFU/mL) (ATCC #43579, 1 mM): None (No change in number of viable H. pylori defined as less than 5fold reduction in CFU/mL)
Reduction in number of viable H. pylori cells (CFU/mL) (ATCC #43629, 1 mM): None (No change in number of viable H. pylori defined as less than 5fold reduction in CFU/mL)
Reduction in number of viable H. pylori cells (CFU/mL) (ATCC #49503, 1 mM): None (No change in number of viable H. pylori defined as less than 5fold reduction in CFU/mL)
